Experimental data as given in paper PMC4982761.
Results are given in words; binding and its absence hold for the method and conditions named. In cells and extracts the contact can be indirect. Binding can be weak; no strength is given. Sequences can lack the tags named with a protein.

Target: HA-Nkx2-5 deletion mutant lacking the homeodomain (HD)
Assay: co-IP; HA-Nkx2-5, Flag-Xrn2 and their deletion mutants cotransfected into C3H10T1/2 cells; immunoprecipitated from nuclear extracts with M2 (Flag) or HA antibody; Western blotting

B1: Flag-Xrn2 (enzyme, UniProt Q9DBR1 1-951)
chain: MGVPAFFRWLSRKYPSIIVNCVEEKPKECNGVKIPVDASKPNPNDVEFDNLYLDMNGIIHPCTHPEDKPAPKNEDEMMVAIFEYIDRLFNIVRPRRLLYMAIDGVAPRAKMNQQRSRRFRASKEGMEAAVEKQRVREEILAKGGFLPPEEIKERFDSNCITPGTEFMDNLAKCLRYYIADRLNNDPGWKNLTVILSDASAPGEGEHKIMDYIRRQRAQPNHDPNTHHCLCGADADLIMLGLATHEPNFTIIREEFKPNKPKPCALCNQFGHEVKDCEGLPREKKGKHDELADSLPCAEGEFIFLRLNVLREYLERELTMASLPFPFDVERSIDDWVFMCFFVGNDFLPHLPSLEIREGAIDRLVNIYKNVVHKTGGYLTESGYVNLQRVQMIMLAVGEVEDSIFKKRKDDEDSFRRRQKEKRKRMKRDQPAFTPSGILTPHALGSRNSPGCQVASNPRQAAYEMRMQRNSSPSISPNTSFASDGSPSPLGGIKRKAEDSDSEPEPEDNVRLWEAGWKQRYYKNKFDVDAADEKFRRKVVQSYVEGLCWVLRYYYQGCASWKWYYPFHYAPFASDFEGIADMSSEFEKGTKPFKPLEQLMGVFPAASGNFLPPTWRKLMSDPDSSIIDFYPEDFAIDLNGKKYAWQGVALLPFVDERRLRAALEEVYPDLTPEENRRNSLGGDVLFVGKLHPLRDFILELYQTGSTEPVDVPPELCHGIQGTFSLDEEAILPDQTVCSPVPMLRDLTQNTAVSINFKDPQFAEDYVFKAAMLPGARKPATVLKPGDWEKSSNGRQWKPQLGFNRDRRPVHLDQAAFRTLGHVTPRGSGTSVYTNTALPPANYQGNNYRPLLRGQAQIPKLMSNMRPQDSWRGPPPLFQQHRFERSVGAEPLLPWNRMIQNQNAAFQPNQYQMLGGPGGYPPRRDDHRGGRQGYPREGRKYPLPPPSGRYSWN
B1 was tested, and the binding was “binds”.
